The text below walks through data of publication doi:10.1101/022756.

The target of the test is T1, EFN-4::Fc::mycHis (C. elegans) (UniProt O44516).
T1 sequence: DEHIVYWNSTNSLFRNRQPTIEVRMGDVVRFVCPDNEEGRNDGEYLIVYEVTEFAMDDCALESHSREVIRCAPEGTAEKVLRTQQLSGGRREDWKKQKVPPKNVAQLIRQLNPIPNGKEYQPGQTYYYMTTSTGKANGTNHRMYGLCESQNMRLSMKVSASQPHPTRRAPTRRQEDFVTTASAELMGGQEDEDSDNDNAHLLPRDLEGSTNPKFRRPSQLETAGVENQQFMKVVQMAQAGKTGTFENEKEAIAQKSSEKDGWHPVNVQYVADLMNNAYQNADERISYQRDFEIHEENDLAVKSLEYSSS
The test can be described thus: BLI.

Results are given in words; binding and its absence hold for the method and conditions named. Some binding calls cover weakened binding; strength is not graded here. Where a sequence is shown, tags or fusion partners need not be part of it.

B1: VAB-1 extracellular domain fused to alkaline phosphatase (receptor, UniProt O61460 30-559)
chain: HQEVLFDLSKVGSDLKWDQVSLRHDRDDVWMEETWRNPAATDEKHANQRAYVTCNYDMINPSNWLFSHFIEVKTARRIYIELLFNTRDCDAYLNPKSCKETFSVYLKQFKTSRPGSTKIEKERFSEDIDNWKNIGRLARSNSNMTTETLGMEIDSDTKTIRIAFEEQGICLSLLNVKIYYRICDEFTDQLVYFRPQVTGPKETDMVRMNGSCIPNASKKIPGVDLIGLCMSTGSGIKTSGECVCDSGYSQIADSNGARCESCPTNTYKPKGQSLCKSCPSNSISSEAASSCRCLNGYFRAEDELISMPCTQPPSRPIKLVANAITATSTRLSWNEPSSLGGRPEIWYEVKCSGRGECGTVVMTPGDKKLSTRSVQINGLRPSSDYTFLVFAKNKVSAQFPEFSEKNAVIDIRTRSEEEDVPPVSHLRVDASQSDGITIAWSVSDSDVSDFEVEVRPAIVKKRTFETRHVNMTYTTFIGLNPETVYQFRVRIRDDLRWSQPISYQLGRGLMSSPSSNEVEESQFLNQTGSA
As for B1, the binding result is given as “binds”.
